# From the supplement of paper PMC11732987, “Enantioselective OTUD7B fragment discovery through chemoproteomics screening and high-throughput optimisation” (Communications Chemistry, 2025)
# Chains of the proteins cited; added tags and fusions are not shown. Lines headed by an entry give the natural chain unless they say otherwise; changes in a name come on top. Residues count along the entry.
# UniProt P12955, 451-470: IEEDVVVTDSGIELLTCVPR
# UniProt Q6ZW49, whole entry, looked up: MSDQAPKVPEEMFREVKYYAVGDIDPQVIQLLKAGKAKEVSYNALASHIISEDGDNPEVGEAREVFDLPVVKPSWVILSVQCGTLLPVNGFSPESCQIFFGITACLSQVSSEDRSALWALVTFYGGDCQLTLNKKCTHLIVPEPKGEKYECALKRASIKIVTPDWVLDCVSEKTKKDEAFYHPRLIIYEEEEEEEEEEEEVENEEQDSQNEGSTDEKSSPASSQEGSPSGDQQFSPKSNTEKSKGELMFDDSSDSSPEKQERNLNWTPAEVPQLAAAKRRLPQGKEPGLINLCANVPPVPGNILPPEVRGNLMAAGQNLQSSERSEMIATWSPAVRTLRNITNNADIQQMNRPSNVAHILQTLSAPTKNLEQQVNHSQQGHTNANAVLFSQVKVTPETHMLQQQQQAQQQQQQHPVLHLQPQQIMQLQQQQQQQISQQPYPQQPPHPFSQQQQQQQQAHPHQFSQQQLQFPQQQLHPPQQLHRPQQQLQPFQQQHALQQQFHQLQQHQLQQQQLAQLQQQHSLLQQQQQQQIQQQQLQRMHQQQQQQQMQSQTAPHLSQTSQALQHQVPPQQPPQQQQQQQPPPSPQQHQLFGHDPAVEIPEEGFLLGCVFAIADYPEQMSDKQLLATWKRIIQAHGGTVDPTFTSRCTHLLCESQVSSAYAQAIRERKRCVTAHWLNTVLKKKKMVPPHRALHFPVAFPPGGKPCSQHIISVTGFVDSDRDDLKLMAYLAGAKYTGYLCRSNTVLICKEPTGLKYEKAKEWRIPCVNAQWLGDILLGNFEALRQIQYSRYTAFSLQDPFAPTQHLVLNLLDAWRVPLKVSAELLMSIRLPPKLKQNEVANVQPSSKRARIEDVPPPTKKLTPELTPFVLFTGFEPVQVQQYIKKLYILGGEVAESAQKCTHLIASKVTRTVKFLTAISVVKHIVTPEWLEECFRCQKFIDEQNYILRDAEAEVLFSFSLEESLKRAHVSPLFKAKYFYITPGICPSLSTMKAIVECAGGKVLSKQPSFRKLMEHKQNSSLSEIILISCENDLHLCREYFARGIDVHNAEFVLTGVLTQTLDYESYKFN
# UniProt O95613: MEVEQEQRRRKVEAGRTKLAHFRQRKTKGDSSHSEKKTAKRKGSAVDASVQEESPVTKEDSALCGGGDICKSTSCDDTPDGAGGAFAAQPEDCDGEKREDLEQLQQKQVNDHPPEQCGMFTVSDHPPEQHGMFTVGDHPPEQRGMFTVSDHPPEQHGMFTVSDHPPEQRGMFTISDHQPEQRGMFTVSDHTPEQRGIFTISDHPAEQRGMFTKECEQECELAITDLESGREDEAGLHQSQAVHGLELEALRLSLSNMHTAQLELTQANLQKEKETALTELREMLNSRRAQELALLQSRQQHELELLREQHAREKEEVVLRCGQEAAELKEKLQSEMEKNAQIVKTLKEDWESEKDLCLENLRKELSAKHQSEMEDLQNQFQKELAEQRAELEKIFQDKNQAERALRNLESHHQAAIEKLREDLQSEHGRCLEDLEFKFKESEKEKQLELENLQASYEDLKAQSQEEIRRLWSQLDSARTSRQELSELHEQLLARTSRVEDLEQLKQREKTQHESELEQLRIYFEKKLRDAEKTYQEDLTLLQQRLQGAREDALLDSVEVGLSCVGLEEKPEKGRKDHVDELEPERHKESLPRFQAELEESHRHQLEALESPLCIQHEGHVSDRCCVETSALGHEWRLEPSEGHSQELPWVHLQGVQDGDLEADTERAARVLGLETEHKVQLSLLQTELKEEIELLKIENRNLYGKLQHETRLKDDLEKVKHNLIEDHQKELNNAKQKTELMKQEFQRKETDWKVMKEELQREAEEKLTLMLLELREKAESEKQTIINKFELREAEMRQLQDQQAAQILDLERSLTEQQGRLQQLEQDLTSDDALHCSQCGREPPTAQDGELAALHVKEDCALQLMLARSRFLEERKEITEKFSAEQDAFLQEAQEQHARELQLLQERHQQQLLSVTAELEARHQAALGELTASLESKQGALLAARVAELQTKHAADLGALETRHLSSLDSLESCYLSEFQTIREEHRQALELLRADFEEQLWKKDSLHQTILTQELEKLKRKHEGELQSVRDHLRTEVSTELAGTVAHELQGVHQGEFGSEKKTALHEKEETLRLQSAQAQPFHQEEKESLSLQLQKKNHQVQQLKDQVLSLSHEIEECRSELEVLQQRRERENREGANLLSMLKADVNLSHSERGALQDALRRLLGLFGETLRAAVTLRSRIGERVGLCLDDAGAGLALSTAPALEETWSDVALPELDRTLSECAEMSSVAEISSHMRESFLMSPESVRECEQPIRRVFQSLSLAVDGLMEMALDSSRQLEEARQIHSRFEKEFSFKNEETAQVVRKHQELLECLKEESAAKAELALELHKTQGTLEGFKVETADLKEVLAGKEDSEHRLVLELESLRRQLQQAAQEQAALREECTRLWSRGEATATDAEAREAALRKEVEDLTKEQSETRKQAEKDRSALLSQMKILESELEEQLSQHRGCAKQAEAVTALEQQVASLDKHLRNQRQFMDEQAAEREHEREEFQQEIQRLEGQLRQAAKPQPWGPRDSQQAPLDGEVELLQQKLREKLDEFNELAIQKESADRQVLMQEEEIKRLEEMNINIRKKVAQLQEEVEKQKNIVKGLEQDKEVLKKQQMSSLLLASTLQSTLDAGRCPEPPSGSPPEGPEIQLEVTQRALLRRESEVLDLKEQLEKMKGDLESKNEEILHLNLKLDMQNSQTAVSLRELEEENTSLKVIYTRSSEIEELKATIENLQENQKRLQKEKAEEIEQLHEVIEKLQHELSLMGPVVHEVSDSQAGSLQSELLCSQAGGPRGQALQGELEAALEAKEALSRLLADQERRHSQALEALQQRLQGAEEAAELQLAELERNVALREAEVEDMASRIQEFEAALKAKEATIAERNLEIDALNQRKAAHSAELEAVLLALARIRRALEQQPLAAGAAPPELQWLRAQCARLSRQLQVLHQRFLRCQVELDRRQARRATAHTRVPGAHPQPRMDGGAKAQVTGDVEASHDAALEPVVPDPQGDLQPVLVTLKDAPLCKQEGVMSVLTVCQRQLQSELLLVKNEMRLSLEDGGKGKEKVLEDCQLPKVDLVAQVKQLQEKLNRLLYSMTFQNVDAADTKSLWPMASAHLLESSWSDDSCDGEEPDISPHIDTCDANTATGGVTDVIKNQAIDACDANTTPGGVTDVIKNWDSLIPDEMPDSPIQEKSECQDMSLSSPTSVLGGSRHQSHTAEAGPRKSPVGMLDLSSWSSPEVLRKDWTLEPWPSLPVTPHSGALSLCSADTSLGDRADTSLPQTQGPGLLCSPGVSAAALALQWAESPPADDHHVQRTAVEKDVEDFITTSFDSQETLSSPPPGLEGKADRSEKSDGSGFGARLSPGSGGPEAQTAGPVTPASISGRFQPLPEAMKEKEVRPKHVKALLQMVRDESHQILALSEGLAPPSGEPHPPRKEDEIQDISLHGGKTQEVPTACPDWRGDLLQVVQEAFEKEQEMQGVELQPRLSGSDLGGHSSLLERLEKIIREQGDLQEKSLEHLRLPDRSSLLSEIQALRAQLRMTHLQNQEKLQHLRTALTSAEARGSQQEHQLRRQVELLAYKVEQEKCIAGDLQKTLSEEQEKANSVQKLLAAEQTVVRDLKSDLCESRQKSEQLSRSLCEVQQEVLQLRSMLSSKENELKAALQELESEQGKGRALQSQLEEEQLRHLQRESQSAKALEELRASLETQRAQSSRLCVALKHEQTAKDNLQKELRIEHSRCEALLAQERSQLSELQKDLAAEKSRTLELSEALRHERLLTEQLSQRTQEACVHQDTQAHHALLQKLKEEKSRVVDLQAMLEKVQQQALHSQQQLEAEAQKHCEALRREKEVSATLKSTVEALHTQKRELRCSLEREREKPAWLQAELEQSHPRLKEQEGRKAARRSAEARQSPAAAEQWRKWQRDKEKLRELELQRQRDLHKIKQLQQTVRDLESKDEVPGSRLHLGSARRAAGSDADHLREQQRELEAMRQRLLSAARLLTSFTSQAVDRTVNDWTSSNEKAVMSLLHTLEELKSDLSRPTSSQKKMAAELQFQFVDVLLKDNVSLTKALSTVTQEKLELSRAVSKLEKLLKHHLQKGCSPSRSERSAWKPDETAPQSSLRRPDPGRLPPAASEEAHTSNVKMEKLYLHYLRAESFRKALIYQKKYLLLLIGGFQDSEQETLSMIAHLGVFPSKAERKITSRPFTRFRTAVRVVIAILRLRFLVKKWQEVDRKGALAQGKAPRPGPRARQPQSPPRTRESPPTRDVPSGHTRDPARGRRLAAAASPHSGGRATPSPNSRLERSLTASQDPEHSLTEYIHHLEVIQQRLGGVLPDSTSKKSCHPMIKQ
# UniProt Q08499: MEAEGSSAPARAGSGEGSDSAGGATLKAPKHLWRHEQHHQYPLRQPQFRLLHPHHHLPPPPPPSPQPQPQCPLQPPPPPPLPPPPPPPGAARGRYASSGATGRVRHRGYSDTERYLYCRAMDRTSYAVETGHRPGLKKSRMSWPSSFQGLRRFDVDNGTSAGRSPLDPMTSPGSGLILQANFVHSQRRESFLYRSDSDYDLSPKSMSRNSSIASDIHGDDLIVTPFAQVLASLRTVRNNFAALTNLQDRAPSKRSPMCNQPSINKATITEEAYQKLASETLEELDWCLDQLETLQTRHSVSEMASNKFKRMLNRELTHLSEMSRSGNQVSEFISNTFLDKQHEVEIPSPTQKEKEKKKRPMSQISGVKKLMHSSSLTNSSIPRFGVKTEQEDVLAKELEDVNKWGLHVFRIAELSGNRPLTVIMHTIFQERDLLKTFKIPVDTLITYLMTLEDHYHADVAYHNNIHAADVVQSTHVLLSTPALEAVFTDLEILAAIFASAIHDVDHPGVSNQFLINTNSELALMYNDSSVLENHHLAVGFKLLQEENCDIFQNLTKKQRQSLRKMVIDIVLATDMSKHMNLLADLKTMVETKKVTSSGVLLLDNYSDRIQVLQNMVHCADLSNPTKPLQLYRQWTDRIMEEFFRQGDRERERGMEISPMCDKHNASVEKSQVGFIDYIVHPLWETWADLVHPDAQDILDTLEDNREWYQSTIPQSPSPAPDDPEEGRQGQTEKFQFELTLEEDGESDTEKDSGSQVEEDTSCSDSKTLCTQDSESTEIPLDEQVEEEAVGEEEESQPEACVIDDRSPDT
# UniProt O43252: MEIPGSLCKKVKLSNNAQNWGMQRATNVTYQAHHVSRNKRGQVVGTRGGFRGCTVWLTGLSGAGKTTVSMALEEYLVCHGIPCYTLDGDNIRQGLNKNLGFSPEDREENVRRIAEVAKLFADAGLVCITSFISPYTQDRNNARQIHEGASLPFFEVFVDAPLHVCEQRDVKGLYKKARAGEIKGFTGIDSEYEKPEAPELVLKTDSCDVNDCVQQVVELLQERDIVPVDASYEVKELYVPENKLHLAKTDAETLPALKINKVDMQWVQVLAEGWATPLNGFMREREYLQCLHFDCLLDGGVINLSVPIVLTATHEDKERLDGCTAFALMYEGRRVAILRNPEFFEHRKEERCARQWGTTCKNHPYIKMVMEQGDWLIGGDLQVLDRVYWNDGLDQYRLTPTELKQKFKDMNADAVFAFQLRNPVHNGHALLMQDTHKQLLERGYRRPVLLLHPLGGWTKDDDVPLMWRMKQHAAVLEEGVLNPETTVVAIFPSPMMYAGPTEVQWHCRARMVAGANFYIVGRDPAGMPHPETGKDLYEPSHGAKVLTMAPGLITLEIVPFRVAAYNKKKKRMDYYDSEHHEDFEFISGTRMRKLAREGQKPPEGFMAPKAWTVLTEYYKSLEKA
# UniProt Q96HC4, 206-225: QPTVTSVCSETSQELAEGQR
# UniProt P00558, 298-323: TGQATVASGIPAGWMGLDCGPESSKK
# UniProt P53609, whole entry, looked up: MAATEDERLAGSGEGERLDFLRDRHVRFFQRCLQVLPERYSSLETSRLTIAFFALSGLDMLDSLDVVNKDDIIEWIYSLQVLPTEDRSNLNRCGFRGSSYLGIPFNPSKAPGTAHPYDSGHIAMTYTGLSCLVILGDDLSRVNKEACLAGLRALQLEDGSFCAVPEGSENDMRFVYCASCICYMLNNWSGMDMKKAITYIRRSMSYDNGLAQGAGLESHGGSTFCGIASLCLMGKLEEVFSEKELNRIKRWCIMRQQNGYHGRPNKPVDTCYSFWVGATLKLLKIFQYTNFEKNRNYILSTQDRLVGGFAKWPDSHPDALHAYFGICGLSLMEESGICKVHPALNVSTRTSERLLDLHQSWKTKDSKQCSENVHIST
# UniProt Q8WUB8, 56-78: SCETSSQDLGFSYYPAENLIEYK
# UniProt Q15004: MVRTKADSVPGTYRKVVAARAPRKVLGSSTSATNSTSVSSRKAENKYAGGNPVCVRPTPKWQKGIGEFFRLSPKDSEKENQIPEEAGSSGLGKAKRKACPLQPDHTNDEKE
# The other results are listed elsewhere or left out. The data scatter; read single values as rough.
# What was measured:
# [1] = compound: ClCC(=O)N[C@@H]1CCCc2ccccc12; assay: log2 mean competition ratio of IA-DTB cysteine labelling (DMSO/compound) (log2 ratio); higher = stronger cysteine engagement by compound; settings: treatment time: 4 h, cell line lysate: HEK293T
# Protocol: (§1)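 IA-DTB competitive cysteine chemoproteomics in HEK293T RIPA lysate. Lysates were treated with compound 29 or 30 at 50 or 200 µM for 4 h, then IA-DTB (500 µM, 1 h), trypsin-digested, NeutrAvidin-enriched and analysed by diaPASEF. Competition ratio = intensity DMSO / intensity compound (n=4 treated, n=64 DMSO); binding: mean log2 CR ≥ 1 and p ≤ 0.05 plus QC filters. Target is the cysteine site.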
# [2] = compound: ClCC(=O)N[C@H]1CCCc2ccccc12; assay: as above; settings: treatment time: 4 h, cell line lysate: HEK293T
# Protocol: as §1
Target,log2 mean competition ratio ([1]; 50 µM),log2 mean competition ratio ([1]; 200 µM),log2 mean competition ratio ([2]; 50 µM),log2 mean competition ratio ([2]; 200 µM)
PAK2 C480 (UniProt Q13177),-0.0574,0.0965,-0.286,-0.00325
PEPD C467 (UniProt P12955),-0.198,0.0696,-0.105,-0.074
PAXIP1 C997 (UniProt Q6ZW49),-0.0555,0.125,0.202,0.125
PARP1 C162 (UniProt P09874),0.196,-0.0373,0.0768,-0.166
PEX2 C283 (UniProt P28328),0.00605,0.0872,-0.384,-0.0328
PCM1 C582 (UniProt Q15154),-0.0283,0.116,-0.0367,0.262
PCNT C1225 (UniProt O95613),-0.0326,0.172,-0.0818,-0.112
PABPC4 C472 (UniProt Q13310),0.251,0.374,0.00759,0.125
P3H1 C645 (UniProt Q32P28),-0.106,0.081,-0.0248,0.257
PCNT C2614 (UniProt O95613),-0.16,0.0071,0.0093,-0.00155
PCBP1 C109 (UniProt Q15365),-0.0599,-0.162,-0.0539,-0.0547
PABPC1 C132,-0.0888,-0.0898,-0.0904,0.0736
PDCD11 C151 (UniProt Q14690),0.226,0.0903,0.159,0.0657
PDE4D C258 (UniProt Q08499),0.692,0.0907,-0.0269,0.0597
PAPSS1 C360 (UniProt O43252),0.662,2.92,0.113,0.461
PDLIM5 C213 (UniProt Q96HC4),-0.601,0.0645,0.258,0.231
PALS1 C366,0.209,0.0693,1,0.596
PAICS C281,-0.269,-0.0667,0.168,-0.198
PABPN1 C205 (UniProt Q86U42),-0.143,-0.0796,0.274,-0.0327
PGK1 C316 (UniProt P00558),0.0857,0.288,0.199,0.127
PGGT1B C369 (UniProt P53609),-0.171,-0.0383,0.0123,0.0448

Target,log2 mean competition ratio ([1]; 50 µM),log2 mean competition ratio ([1]; 200 µM),log2 mean competition ratio ([2]; 50 µM),log2 mean competition ratio ([2]; 200 µM)
PDK2 C195 (UniProt Q15119),0.144,0.241,-0.279,-0.0513
PARP9 C728 (UniProt Q8IXQ6),-0.213,-0.184,-0.00544,-0.00466
PHF12 C613 (UniProt Q96QT6),0.212,-0.058,0.158,-0.0147
PDE4DIP C617,-0.396,0.175,-0.452,0.227
PEPD C158 (UniProt P12955),-0.246,0.224,-0.0912,0.455
PAXIP1 C740 (UniProt Q6ZW49),0.0619,-0.159,-0.472,-0.105
PANK4 C150 (UniProt Q9NVE7),-0.168,0.107,-0.691,-0.317
PGRMC2 C159 (UniProt O15173),0.117,-0.143,0.138,-0.0813
PDCD11 C599 (UniProt Q14690),-0.152,0.189,-0.14,-0.0126
PDK2 C45 (UniProt Q15119),-0.348,0.117,0.176,0.473
PCBP4 C113,0.0731,0.0389,-0.22,0.0585
PAG1 C179 (UniProt Q9NWQ8),-0.351,0.62,-0.109,0.205
PGP C243 (UniProt A6NDG6),-0.0201,-0.0797,0.246,0.0686
PAPSS2 C350 (UniProt O95340),0.693,1.67,0.671,0.0743
OXCT1 C504 (UniProt P55809),-0.0882,0.0317,-0.221,0.178
PEAK1 C365 (UniProt Q9H792),0.242,-0.0919,0.164,0.049
PCNA C81 (UniProt P12004),-0.0587,-0.195,-0.289,-0.201
PDZD8 C667 (UniProt Q8NEN9),-0.246,0.0485,-0.0689,0.0574
PHF10 C57 (UniProt Q8WUB8),0.341,0.197,0.684,-0.184
PCLAF C54 (UniProt Q15004),0.496,-0.216,0.318,-0.279

# Part of the list above, with bars between the fields:
Target | log2 mean competition ratio ([1]; 50 µM) | log2 mean competition ratio ([1]; 200 µM) | log2 mean competition ratio ([2]; 50 µM) | log2 mean competition ratio ([2]; 200 µM)
PEX2 C283 (UniProt P28328) | 0.00605 | 0.0872 | -0.384 | -0.0328
PCM1 C582 (UniProt Q15154) | -0.0283 | 0.116 | -0.0367 | 0.262
PCNT C1225 (UniProt O95613) | -0.0326 | 0.172 | -0.0818 | -0.112
